# Experimental data from article PMC11612968, “Endo-bind-n-seq: identifying RNA motifs of RNA binding proteins isolated from endogenous sources”.
# For some of these results: Weaker means in comparison with the reference protein, sequence or condition of that experiment. For some of these results: Protein sequences can lack the tags named with them. For some of these results: The exact form of at least one protein or probe is not confirmed. For some of these results: Negatives hold for the conditions tested. For some of these results: Where cells or extracts were used, other partners may take part.
# Tests used:
# GST-ZC3H7B(415-956) = target: T1, GST-ZC3H7B(415-956) (UniProt Q9UGR2); experiment: filter binding; conditions: Filter binding: 50 mM Tris-HCl pH 8.0, 150 mM NaCl, 5% glycerol, 20 C; recombinant protein; residues 415-956; protein details: N-terminal GST (pGEX-4T-1, TEV site); label: 5' 32P
# T1 sequence (looked up): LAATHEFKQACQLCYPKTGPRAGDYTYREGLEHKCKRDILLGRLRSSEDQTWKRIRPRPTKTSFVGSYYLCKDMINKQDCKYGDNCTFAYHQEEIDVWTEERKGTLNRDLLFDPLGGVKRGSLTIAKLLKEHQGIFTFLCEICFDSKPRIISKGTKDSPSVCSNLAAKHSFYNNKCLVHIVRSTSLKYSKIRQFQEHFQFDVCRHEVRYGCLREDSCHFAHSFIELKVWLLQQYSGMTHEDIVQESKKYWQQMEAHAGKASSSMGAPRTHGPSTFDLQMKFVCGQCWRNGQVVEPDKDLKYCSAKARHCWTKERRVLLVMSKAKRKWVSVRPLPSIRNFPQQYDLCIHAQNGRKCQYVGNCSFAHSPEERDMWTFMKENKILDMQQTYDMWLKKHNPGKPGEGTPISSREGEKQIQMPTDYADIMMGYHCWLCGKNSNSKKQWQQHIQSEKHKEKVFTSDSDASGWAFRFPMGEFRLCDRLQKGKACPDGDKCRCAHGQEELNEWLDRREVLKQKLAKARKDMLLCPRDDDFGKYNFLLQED
# [1] = system: PfuSmAP1-Strep (Pyrococcus furiosus); experiment: EMSA; conditions: 40 mM EDTA, 70 C, 0-400 nM heptamer, EMSA: 20 mM HEPES-KOH pH 7.4, 100 mM NaCl, 1 mM MgCl2, 0.1% Tween20, 40 mM EDTA, 10% glycerol, recombinant protein, protein details: C-terminal StrepII, label: 5' HEX
# FH-ZC3H7B [2] = target: T2, FH-ZC3H7B (UniProt Q9UGR2); experiment: pull-down; conditions: 32P-RNA 1 pmol on FLAG beads; protein in a lysate after overexpression; residues 2-977; protein details: N-terminal FLAG-HA; label: 32P (or unlabeled as competitor); letters put together from the description
# T2 sequence (looked up): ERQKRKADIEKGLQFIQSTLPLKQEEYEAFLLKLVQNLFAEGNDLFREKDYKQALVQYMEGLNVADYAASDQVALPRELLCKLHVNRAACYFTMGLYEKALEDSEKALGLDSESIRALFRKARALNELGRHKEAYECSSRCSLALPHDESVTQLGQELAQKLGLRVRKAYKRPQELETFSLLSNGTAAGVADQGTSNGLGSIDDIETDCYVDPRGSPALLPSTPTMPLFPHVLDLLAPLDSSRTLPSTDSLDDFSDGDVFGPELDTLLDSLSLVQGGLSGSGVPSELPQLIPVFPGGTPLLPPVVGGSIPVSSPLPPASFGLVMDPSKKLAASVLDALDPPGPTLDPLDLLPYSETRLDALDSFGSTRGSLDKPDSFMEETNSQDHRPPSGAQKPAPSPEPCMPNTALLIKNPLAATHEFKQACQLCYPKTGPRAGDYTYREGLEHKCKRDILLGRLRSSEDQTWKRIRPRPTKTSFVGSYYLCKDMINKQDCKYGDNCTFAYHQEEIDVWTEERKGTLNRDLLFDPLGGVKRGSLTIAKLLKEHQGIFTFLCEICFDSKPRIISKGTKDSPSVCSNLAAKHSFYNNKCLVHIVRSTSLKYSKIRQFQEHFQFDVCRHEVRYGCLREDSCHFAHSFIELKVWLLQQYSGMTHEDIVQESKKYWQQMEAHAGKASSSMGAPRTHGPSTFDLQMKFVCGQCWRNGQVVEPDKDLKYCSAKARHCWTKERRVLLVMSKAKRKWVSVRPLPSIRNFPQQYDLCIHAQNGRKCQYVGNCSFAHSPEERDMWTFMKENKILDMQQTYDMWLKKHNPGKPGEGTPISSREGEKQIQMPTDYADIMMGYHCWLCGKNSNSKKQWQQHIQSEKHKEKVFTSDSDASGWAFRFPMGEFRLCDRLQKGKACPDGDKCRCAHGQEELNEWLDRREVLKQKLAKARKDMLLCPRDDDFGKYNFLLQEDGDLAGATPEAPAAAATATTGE
# FH-ZC3H7B [3] = target: T2, FH-ZC3H7B; experiment: competition with a labelled probe; conditions: unlabeled, 1-4 pmol, EMSA: 20 mM HEPES-KOH pH 7.4, 100 mM NaCl, 1 mM MgCl2, 0.1% Tween20, 40 mM EDTA, 10% glycerol, 70 C, protein in a lysate after overexpression, residues 2-977, protein details: N-terminal FLAG-HA, label: 32P (or unlabeled as competitor), letters put together from the description
Sequence,binding result [1],binding result (FH-ZC3H7B [2]),other results
AAAGUGAAGU [ZC3H7B mutant motif RNA],–,–,binding result (GST-ZC3H7B(415-956)): binds more weakly
GAACCCCCCCCCAAUGAAC [C-rich control RNA],no binding,–,–
GAAUUUGAGUUUAAUGAAC [SmAP1 motif RNA],binds,–,–
GGGACACACACACAGUUUCGACACACACAC [ZC3H7B Motif 1 (AGUUUCG)],–,binds,"binding result (FH-ZC3H7B [3]; against labeled Motif 2, competes less than Motif 2): binds more weakly"
GGGACACACACACAUAGAUACACACACAC [ZC3H7B Motif 2 (AUAGAU)],–,binds,"binding result (FH-ZC3H7B [3]; against labeled Motif 1, better competitor): binds"
